Reference: PubChem BioAssay AID2685 (National Center for Advancing Translational Sciences (NCATS), 2010)
The other results are listed elsewhere or left out. Shown are side measurements of this screen, not its main read-out; they come without a call. Most of these compounds were active or inconclusive in the main read-out, so they are no random draw. Potencies come from curve fits of mixed quality, noted in brackets.

Experiment: qHTS Assay for Lipid Storage Modulators in Drosophila S3 Cells;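 on cell number change: cells counted by Cell Tracker Red CMTPX staining in the red channel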
Conditions: BODIPY lipid droplet fluorescence, 18-24 h; for cell number change: measured here: cell count max response, cells fed with added oleic acid
In short: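 Drosophila S3 cells got compounds at several concentrations plus oleic acid (400 uM solution). Laser-scanning cytometry with 488 nm excitation read lipid droplets at 500-530 nm and cells at 575-640 nm. Percent activity was relative to 20 uM Triacsin C.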

[1] = measured here: lipid fluorescence (Fed channel) AC50, cells fed with added oleic acid
[2] = measured here: cell number channel AC50, cells fed with added oleic acid

| Compound | cell number change [%] | AC50 [1] | AC50 [2] |
| --- | --- | --- | --- |
| O=C(Nc1ccccc1N1CCOCC1)c1ccc(Cl)c(S(=O)(=O)NCc2ccco2)c1 | -0.12 | 29.1 µM [falling, single point] |  |
| O=C(CC1(O)C(=O)N(C/C=C/c2ccccc2)c2ccccc21)c1ccccn1 (centres undefined) | -9.05 |  |  |
| O=C(CCCOc1ccc(Br)cc1)Nc1ccc(S(=O)(=O)N2CCOCC2)cc1 | -18.2 | 6.51 µM [rising, single point] |  |
| Cc1cc(C)nc(Nc2ccc(O)cc2)n1 | 20.5 | 11.6 µM [rising, partial curve, poor fit] |  |
| Cc1cccc(NS(=O)(=O)c2ccc(C3CCCCC3)cc2)c1 | -66.5 | 29.1 µM [falling, single point] | 18.4 µM [falling, single point] |
| CC(C)(C)c1cc(NS(=O)(=O)c2ccc3c(c2)OCCO3)on1 | -30.5 |  | 14.6 µM [falling, partial curve, poor fit] |
| O=C(OCC(=O)N1CCN(S(=O)(=O)c2ccc(Cl)cc2)CC1)C1CC1 | -11.7 | 2.59 µM [falling, partial curve] |  |
| CN(C)c1ccc2c(=O)[nH][nH]c(=O)c2c1 | -1.49 | 0.00411 µM [rising, full curve, poor fit] |  |
| CCCCN1C(=O)c2ccc(C(=O)NCCN3C(=O)S/C(=C\c4cccnc4)C3=O)cc2C1=O | 8.22 | 16.4 µM [falling, single point] |  |
| O=C1CN(C(=O)COc2ccccc2Cl)c2ccccc2N1 | -3.48 |  |  |
| CCOc1cc(/C=C/C(=O)N(CC)CC(=O)NCc2cccs2)cc(Cl)c1OC | 62.7 |  | 23.1 µM [rising, single point] |
| O=c1cc(-c2ccccc2)oc2ccc(O)cc12 | -5.39 | 0.00461 µM [falling, full curve, poor fit] |  |
| Cc1ccc(S(=O)(=O)N(CCC(=O)NCc2ccccc2F)c2ccccc2)cc1 | 1.69 | 29.1 µM [falling, partial curve, poor fit] |  |
| COc1ccc(-n2nc(C(=O)NCC(=O)N3CCC(C(N)=O)CC3)c3ccccc3c2=O)cc1OC | 28.6 | 0.58 µM [falling, single point] |  |
| Cc1ccc(C)c(N(C(=O)Cc2cccs2)C(C(=O)NC2CCCC2)c2ccc(C)o2)c1 (centres undefined) |  | 6.51 µM [falling, single point] |  |
| Cc1c(=O)n(OCc2cccc(F)c2)c2ccccc2[n+]1[O-] | 103 |  | 1.03 µM [rising, full curve, poor fit] |
| Cc1ccccc1-c1cc2nc(-c3ccc([N+](=O)[O-])cc3)cc(=O)n2[nH]1 | -8.23 |  |  |
| CC[n+]1c(C)sc2c(C)cc(C)cc21 | 22.5 | 29.1 µM [rising, single point] |  |
| Cc1ccc(CCC(=O)Nc2ccc(C)c(C)c2)o1 | -60.7 |  | 29.1 µM [falling, single point] |
| CC1Oc2ccccc2N(CC(=O)N(Cc2ccccc2)Cc2ccccn2)C1=O (centres undefined) |  | 0.13 µM [falling, full curve, poor fit] |  |
| O=C(O/N=C/c1cccc([N+](=O)[O-])c1)C1CC1 | -81.4 |  | 18.4 µM [falling, single point] |

Single records, from the list above:
Cc1cccc(NS(=O)(=O)c2ccc(C3CCCCC3)cc2)c1 is listed with cell number change [%]: -66.5; AC50 [1]: 29.1 µM [falling, single point]; AC50 [2]: 18.4 µM [falling, single point]
Cc1ccc(C)c(N(C(=O)Cc2cccs2)C(C(=O)NC2CCCC2)c2ccc(C)o2)c1 (centres undefined) is listed with AC50 [1]: 6.51 µM [falling, single point]
Cc1c(=O)n(OCc2cccc(F)c2)c2ccccc2[n+]1[O-] is listed with cell number change [%]: 103; AC50 [2]: 1.03 µM [rising, full curve, poor fit]
Cc1ccc(CCC(=O)Nc2ccc(C)c(C)c2)o1 is listed with cell number change [%]: -60.7; AC50 [2]: 29.1 µM [falling, single point]

Later entries

| Compound | cell number change [%] | AC50 [1] | AC50 [2] |
| --- | --- | --- | --- |
| CCN(CC)CCCNC(=O)CC1Oc2ccc(C)cc2NC1=O (centres undefined) | 4.15 |  |  |
| Cc1cccc(C)c1NC(=O)Cn1nnc(C(=O)Nc2ccc(F)cc2F)c1N | 19.1 | 6.51 µM [rising, single point] |  |
| COc1ccc(OC)c(-c2nc(CN3CCN(C(=O)c4ccco4)CC3)c(C)o2)c1 | 5.9 |  |  |
| O=C(c1ccc2nccnc2c1)N1CCN(Cc2ccc3c(c2)OCO3)CC1 | 32.9 |  | 6.51 µM [rising, partial curve] |
| COc1ccc(/C(C)=N/NS(=O)(=O)c2cc(C)ccc2C)c(OC)c1 | 54.5 |  | 2.91 µM [rising, full curve] |
| CN(c1cccc(NS(=O)(=O)c2cccc([N+](=O)[O-])c2)c1)S(C)(=O)=O | -21.9 |  | 2.31 µM [falling, single point] |
| Cc1ccccc1OCc1nc(-c2ccc(NC(=O)c3cccs3)cc2)no1 | -2.39 | 3.26 µM [rising, single point] |  |
| O=C(NCc1ccccc1)NS(=O)(=O)c1ccccc1Cl | -12 | 0.103 µM [falling, full curve, poor fit] |  |
| CC1C(=O)N2CCCc3cc(S(=O)(=O)N4CCC(C(N)=O)CC4)cc1c32 (centres undefined) | -0.763 |  | 6.51 µM [falling, single point] |
| CN(C)c1ccc(/C=N/NC(=O)c2cnc3ccccc3c2)cc1 | 10.9 | 0.326 µM [rising, full curve] |  |
| CCOc1ccccc1NC(=O)CN(c1ccc(Cl)cc1)S(C)(=O)=O | -15.4 | 29.1 µM [falling, single point] |  |
| CCCc1cc(C(=O)N2CCN(c3ccc(C(F)(F)F)cn3)CC2)sc1C | 6.35 |  |  |
| O=C(Nc1ccccc1F)C1CCCN(S(=O)(=O)c2cccc3cccnc23)C1 (centres undefined) | 10.6 | 0.82 µM [rising, partial curve] |  |
| CCN(CC(=O)Nc1ccc(NC(C)=O)cc1)C(=O)C12CC3CC(CC(Cl)(C3)C1)C2 | -24.3 |  |  |
| COc1cc(-c2cc(C(=O)N(C)Cc3ccccc3)c3ccccc3n2)cc(OC)c1OC | -10.3 | 1.16 µM [falling, full curve] |  |
| c1ccc(-c2csc(NNC3=NCCCCC3)n2)cc1 | -74.7 | 14.6 µM [falling, partial curve] | 18.4 µM [falling, partial curve] |
| CC1(C)C(=O)Nc2ccccc2N1C(=O)CN1C(=O)NC(CCc2ccccc2)C1=O (centres undefined) | -78.5 | 29.1 µM [falling, single point] | 29.1 µM [falling, single point] |
| O=C(Cc1ccc(-n2c(=S)[nH]c3ccccc3c2=O)cc1)N1CCN(c2ccccc2)CC1 | 160 | 1.46 µM [rising, full curve, poor fit] | 25.9 µM [rising, partial curve] |
| CC1Cc2ccccc2N1C(=O)COC(=O)CSc1ccc(F)cc1 (centres undefined) | -30 |  |  |
| Cc1cc(C)nc(SCc2ccc3nonc3c2)n1 | -29 | 29.1 µM [falling, single point] |  |
| C#CCOCCOCCOCCNc1nc(N2CCN(C(=O)CCCCCCCCCCNC(=O)Cn3cc(CCCCCN)nn3)CC2)nc(N2CCN(C(=O)CCCCCCCCCCNC(=O)Cn3cc(C[C@@H](C)O)nn3)CC2)n1 | 10.2 | 0.411 µM [falling, single point] |  |

| Compound | cell number change [%] | AC50 [1] | AC50 [2] |
| --- | --- | --- | --- |
| CC(=O)N[C@@H](Cc1c[nH]c2ccccc12)C(=O)OCC(=O)Nc1ccc(S(=O)(=O)N(C)C)cc1 | 1.32 | 0.326 µM [falling, partial curve, poor fit] |  |
| Cn1c(=O)c2c(nc(SCC(=O)N3CCOCC3)n2C)n(C)c1=O | 15.2 |  |  |
| COc1cc2c(cc1OC)C(c1ccc(-c3ccc(Cl)cc3Cl)o1)=NCC2 | -45.8 | 23.1 µM [falling, single point] | 10.3 µM [falling, single point] |
| C=C(C)Cn1c(SCC(=O)N/N=C/c2c(O)ccc3ccccc23)nc2ccccc2c1=O | 133 |  | 16.4 µM [rising, single point] |
| COC(=O)C1=C(C)N(C)C(C)=C(C(=O)OC)C1c1ccc(Cl)cc1 | 41.4 | 6.51 µM [rising, partial curve] | 2.59 µM [rising, full curve] |
| CCCCCCCNC(=O)CN1C(=O)CSc2ccc(S(=O)(=O)N3CCOCC3)cc21 |  | 0.116 µM [falling, single point] |  |
| COc1cc(C(=O)NCCC(=O)N2CCN(C)CC2)cc(OC)c1OC | 33.6 |  |  |
| Cc1ccc(C)c(NC(=O)CSc2nc3c(oc4ccccc43)c(=O)n2-c2ccccc2)c1 | 1.4 | 0.366 µM [rising, single point] |  |
| Clc1ccc(OCCn2ccnc2)c(Br)c1 | 2.82 | 11.6 µM [rising, partial curve] |  |
| Cc1nn(CC(=O)NC2CCCCC2)c(=O)c2cccn12 | 35.5 |  | 32.6 µM [rising, single point] |
| O=S(=O)(c1cccc2cccnc12)N1CCN(Cc2ccc3c(c2)OCO3)CC1 | -4.31 | 6.51 µM [rising, single point] |  |
| Cc1ccc(N2C(=O)c3ccccc3C2(O)c2ncc[nH]2)cc1 (centres undefined) | 3.84 |  |  |
| COc1ccc([C@]23Cc4ccccc4C(O2)C2=C(CCCC2=O)O3)cc1 | 29.9 | 5.31 µM [rising, single point] |  |
| COCC(=O)N(Cc1cc2cc(C)ccc2[nH]c1=O)c1cccc(C)c1C | 5.11 | 25.9 µM [rising, single point] |  |
| CCCc1[nH]n(-c2nc3ccccc3s2)c(=O)c1C=NCCCOC | 25.8 | 1.3 µM [rising, full curve] | 1.64 µM [rising, full curve, poor fit] |
| CN(C)c1ccc(/C=C(/C(=O)c2ccc(Cl)cc2Cl)n2cncn2)cc1 | -103 | 20.6 µM [falling, single point] | 18.4 µM [falling, partial curve] |
| COc1ccc([N+](=O)[O-])cc1N(CC(=O)NC1CCCC1)S(C)(=O)=O | 6.44 |  |  |
| COc1cc2c(cc1NC(=O)CCC(=O)O)oc1ccccc12 | 18.9 | 1.46 µM [rising, full curve, poor fit] |  |
| Cc1ccc(Nc2nnc(SCC(=O)Nc3ccc(S(=O)(=O)N4CCOCC4)cc3)s2)cc1 | -15.8 |  |  |
